PubChem BioAssay AID1224830, NIAID | 2016

Purpose: 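Host factors that control LPS-induced TNF expression in human macrophages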 (primary screen)
Cells: human THP-1 monocytic leukaemia cells, TNF dual-luciferase reporter clone, PMA-differentiated to macrophage-like cells
Knock-down reagent: siRNA pool against human genes, 50 nM
Duration: LPS for 4 h, given about 3 days after siRNA transfection
Conditions: bacterial LPS (TLR4 ligand), 10 ng/ml
Measured: 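Ratio of firefly to renilla light, scaled to the plate median and expressed as a robust z-score per replicate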
Direction: TNF reporter robust z-score: higher = stronger TNF reporter response to LPS
Call rule: 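a well is active when its z-score exceeds 2.8 or falls below -1.5; control wells carry no call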
Shown is a random part of about 18,000 reagents. Of all reagents, about 2,900 (16%) got an active call. 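Calls are made per well; low scores hint the gene aids the LPS response, high scores that it dampens it.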 Entries without a mark were called inactive. Repeated entries: four replicate wells of each siRNA pool. No sequences are given here.

| Target gene | TNF reporter robust z-score |
| --- | --- |
| CARM1 | 2.66 |
| CARM1 | 2.79 |
| CARM1 | -0.28 |
| CARM1 | 1.21 |
| RACK1 | -1.59 (active) |
| RACK1 | -0.2 |
| RACK1 | -0.97 |
| RACK1 | -1 |
| H2AC11 | 1.72 |
| H2AC11 | 1.4 |
| H2AC11 | 0.07 |
| H2AC11 | -0.82 |
| CDC26 | -0.16 |
| CDC26 | 1.15 |
| CDC26 | 0.68 |
| STMN2 | -1.63 (active) |
| STMN2 | -1.14 |
| STMN2 | -1.62 (active) |
| STMN2 | -1.77 (active) |
| CBLIF | 0.8 |
| CBLIF | 0.12 |
| CBLIF | 0.51 |
| CBLIF | 1.78 |
| SLC16A14 | -0.33 |
| SLC16A14 | -0.42 |
| SLC16A14 | -0.1 |
| SLC16A14 | -1.2 |
| RGS20 | -1.63 (active) |
| RGS20 | -1.39 |
| RGS20 | -1.79 (active) |
| RGS20 | -1.35 |
| PLAC9 | -0.92 |
| PLAC9 | -1.3 |
| PLAC9 | -0.26 |
| PLAC9 | -1.26 |
| KLHL36 | 0.25 |
| KLHL36 | -0.09 |
| KLHL36 | -0.1 |
| KLHL36 | 0.61 |
| WDR90 | -0.27 |
| WDR90 | -0.91 |
| WDR90 | -0.71 |
| IL36G | -0.64 |
| IL36G | -0.68 |
| IL36G | -0.23 |
| IL36G | -0.56 |
| SOCS6 | 2.05 |
| SOCS6 | 2.38 |
| SOCS6 | 2.37 |
| SOCS6 | -0.81 |
| ATP13A5 | 0.08 |
| ATP13A5 | 1.49 |
| ATP13A5 | 2.72 |
| ATP13A5 | 2.71 |
| OR4C11 | 0.07 |
| OR4C11 | -0.55 |
| OR4C11 | 0.26 |
| OR4C11 | 1.24 |
| BTG1 | 0.98 |
| BTG1 | 4.14 (active) |
| BTG1 | 3.12 (active) |
| BTG1 | 3.93 (active) |
| SFXN1 | 0.11 |
| SFXN1 | -0.48 |
| SFXN1 | -0.71 |
| SFXN1 | -1.08 |
| GMPR2 | -0.96 |
| GMPR2 | -0.33 |
| GMPR2 | -0.79 |
| GMPR2 | -0.3 |
| FGFBP3 | -1.36 |
| FGFBP3 | -0.93 |
| FGFBP3 | -1.59 (active) |
| FGFBP3 | -1.07 |
| OR10J3 | -0.09 |
| OR10J3 | 0.56 |
| OR10J3 | -0.32 |
| OR10J3 | 0.19 |
